{"source": "patent US11078157B1", "about": "“Compound embodiments that release H2S by reaction with a reactive compound and methods of making and using the same” (University of Oregon, priority 2018, dated 2021)", "assay": "H2S release via methylene blue assay (MBA)", "assay_type": "physicochemical", "conditions": "25 μM compound, cysteine 500 μM (20 equiv.)", "method": "H2S Detection Materials and Methods—Phosphate buffered saline (PBS) tablets (1×, CalBioChem) were used to prepare buffered solutions (140 mM NaCl, 3 mM KCl, 10 mM phosphate, pH 7.4) in deionized water. Buffer solutions were sparged with N2 to remove dissolved oxygen and stored in an N2-filled glovebox. Donor stock solutions (in DMSO) were prepared inside an N2-filled glovebox and stored at −25° C. until immediately before use. Trigger stock solutions (in PBS) were freshly prepared in an N2-filled glovebox immediately before use.\nGeneral Procedure for Measuring H2S Release via Methylene Blue Assay (MBA)—Scintillation vials containing 20 mL of PBS were prepared in an N2-filled glovebox. […] Absorbance values at 670 nm were measured 1 hour after addition of reaction aliquot. […]\nMBA Calibration Curve—Solutions containing 0.5 mL of the methylene blue cocktail and 0.5 mL PBS containing 500 μM cysteine were freshly prepared in disposable cuvettes (1.5 mL). […] Absorbance values at 670 nm were measured after 1 hour.\nIn this example, the released H2S was measured and quantified using the methylene blue assay for H2S. […] After incubation for 1 hour, the absorbance at 670 nm is measured and converted to a H2S concentration by using the H2S calibration curve. To assess the H2S-releasing efficiency from the compound embodiments, a methylene blue calibration curve was used to quantify the H2S release (FIG. 2).", "note": "Entries after “also recorded” stand apart in the source; their conditions may differ.", "data": [{"smiles": "O=C(Nc1ccccc1)c1ccccc1", "note": "[N-phenylbenzamide, reference compound]", "values": [{"measurement": "H2S release in the presence of cysteine", "value": "lack of H2S release; also recorded: failed to release H2S"}]}]}
